Measured values from US20210115154A1 (Chugai, published 2021).
No constants are given. Whether binding was seen depends on the method and setting. Binding calls can cover weak binding; strength is not graded here.

B1: MAS0102dd (antibody, human IgG4 S228P, kappa, V domains shown)
VH: QSVEESGGRLVTPGTPLTLTCTVSGFSLSSYAMSWVRQAPGKGLEWIGIITNLDNTYYANWAKGRFTISKTSTTVDLKITSPTTEDTAAYLCARERIKRKYSYDDYGGWAFDPWGPGTLVTVSS
VL: QVLTQTPSSVSGPVGGTVTINCQAIENIYRSLAWYQQKPGQPPKLLIYDTSDLASGVPSRFSGSGSGTEYTLTISGVQCDDAATYYCQSYYYSSVTYNAFGGGTKVEIKR
notes: Rabbit/human chimeric antibody: rabbit variable regions recombined with F760G4 and kOMTC constant regions; also called anti-MASP-1 chimeric mAb MAS0102dd
B2: MAS0114bb (antibody, human IgG4 S228P, kappa, V domains shown)
VH: QSVEESGGRLVTPGTPLTLTCTASGFDINNYAIHWVRQAPGEGLEWIGYIYARSGVTWYASWVKGRFTISKTSTTVDLKMTSLTTEDTATYFCARVLAGGGYANTGLSLWGPGTLVTVSS
VL: DIVMTQTPSSVSAAVGGTVTIKCQASQNIGYSSAWYQQKPGQRPKLMIYGASTLASGVPSRFSGSGSGTEYTLTISGVQCDDAATYYCQSNYISSGSVDGTFGGGTKVEIKR
notes: Rabbit/human chimeric antibody: rabbit variable regions recombined with F760G4 and kOMTC constant regions; also called anti-MASP-1 chimeric mAb MAS0114bb
B3: MAS0116aa (antibody, human IgG4 S228P, kappa, V domains shown)
VH: QSLEESGGRLVTPGTPLTLTCTASGFSLSSCYMSWVRQAPGEGLEWIGTIYTGSGATYYASWAKGRFTVSITSTTVDLKITSPTTEDTATYFCARAIYPGSSSSNLCAFDLWGPGTLVTVSS
VL: QVLTQTPASVSAAVGGTVTINCQASQSVYDNNWLAWYQQKPGQPPKLLIYQASSLASGVPSRFKGSGSGAQFTLTISDLECDDAATYFCQGYYAGVLYSFGGGTKVEIKR
notes: Rabbit/human chimeric antibody: rabbit variable regions recombined with F760G4 and kOMTC constant regions; also called anti-MASP-1 chimeric mAb MAS0116aa
B4: MAS0141aa (antibody, human IgG4 S228P, kappa, V domains shown)
VH: QSVEESGGRLVTPGTPLTLTCTASGFSLINYYMTWVRQAPGKGLEWIGIINTDGGTYYASWAKGRFTISRTSTTVDLKMTSLTTEDTATYFCARGVFTGGWTGMRTNLWGPGTLVTVSS
VL: DVVMTQTPASVEAAVGGTVTIKCQASEDIYILLAWYQQKPGQPPKLLIYAASNLESGVPSRFKGSGSGTEFTLTISDLECADAATYYCQCTYGSSSSNAFGGGTKVEIKR
notes: Rabbit/human chimeric antibody: rabbit variable regions recombined with F760G4 and kOMTC constant regions; also called anti-MASP-1 chimeric mAb MAS0141aa
B5: MAS0154dd (antibody, human IgG4 S228P, kappa, V domains shown)
VH: QSVEESGGRLVTPGTPLTLTCTVSGFSLSNYNMGWVRQAPGEGLEYIGIISSQGDIYYATWAKGRFTISKTSTTVDLKITSPTTEDTATYFCARARHVGSAADSYFHLWGLGTLVTVSS
VL: AVVLTQTASPVSAAVGGTVTINCQASEEIYRNLAWYQQKPGQRPKLLIYGASNLASGVPSRFSGSGSGTEYTLTISDLECADAATYYCQRYAWGKNSADGNTFGGGTKVEIKR
notes: Rabbit/human chimeric antibody: rabbit variable regions recombined with F760G4 and kOMTC constant regions; also called anti-MASP-1 chimeric mAb MAS0154dd
B6: MAS0177hh (antibody, human IgG4 S228P, kappa, V domains shown)
VH: QSVEESGGRLVTPGTPLTLTCTASGFSLSSAYMNWVRQAPGKGLEWIGIIYASGSTWYASWAKGRFTISKTSTTVDLKITSPTTEDTATYFCARDDYGTADLWGPGTLVTVSS
VL: AVVLTQTASPVSAPVGGTVTIKCQASQSIGSSLAWYQQKPGQSPKLLIYGASTLVSGVSSRFSGSRSGTEFSLTISDLECADAATYYCQNYYLSSSSADRRTFGGGTKVEIKR
notes: Rabbit/human chimeric antibody: rabbit variable regions recombined with F760G4 and kOMTC constant regions; also called anti-MASP-1 chimeric mAb MAS0177hh

Biological target: Human MASP-1 (CCP1-CCP2-SP S646A) (human)
Experiment: ELISA, antibody captured by goat anti-human IgG, 8 nM biotinylated antigen

| Binder | binding |
| --- | --- |
| B1 | binds |
| B2 | binds |
| B3 | binds |
| B4 | binds |
| B5 | binds |
| B6 | binds |
